# Paper PMC9217950
# Sequences of proteins named here, by UniProt entry; tags and fusion partners are left off.
# UniProt Q96J77: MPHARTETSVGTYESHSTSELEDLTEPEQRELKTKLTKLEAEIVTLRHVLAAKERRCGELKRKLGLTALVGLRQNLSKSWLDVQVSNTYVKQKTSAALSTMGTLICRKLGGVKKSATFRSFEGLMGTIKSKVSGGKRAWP
# UniProt Q00987: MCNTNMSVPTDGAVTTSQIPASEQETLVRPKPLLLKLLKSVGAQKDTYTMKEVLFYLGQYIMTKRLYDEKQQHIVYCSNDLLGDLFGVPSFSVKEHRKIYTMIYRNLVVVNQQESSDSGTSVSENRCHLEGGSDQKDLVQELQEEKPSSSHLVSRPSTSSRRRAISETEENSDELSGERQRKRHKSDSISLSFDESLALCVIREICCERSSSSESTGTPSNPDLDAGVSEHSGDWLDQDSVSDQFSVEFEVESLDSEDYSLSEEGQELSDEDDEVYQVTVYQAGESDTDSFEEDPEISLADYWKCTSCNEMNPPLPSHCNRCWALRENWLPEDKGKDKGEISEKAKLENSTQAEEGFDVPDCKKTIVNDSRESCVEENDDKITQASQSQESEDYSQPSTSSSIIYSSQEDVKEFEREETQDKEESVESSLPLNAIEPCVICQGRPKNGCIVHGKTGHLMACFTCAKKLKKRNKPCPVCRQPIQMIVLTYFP
# UniProt P25963: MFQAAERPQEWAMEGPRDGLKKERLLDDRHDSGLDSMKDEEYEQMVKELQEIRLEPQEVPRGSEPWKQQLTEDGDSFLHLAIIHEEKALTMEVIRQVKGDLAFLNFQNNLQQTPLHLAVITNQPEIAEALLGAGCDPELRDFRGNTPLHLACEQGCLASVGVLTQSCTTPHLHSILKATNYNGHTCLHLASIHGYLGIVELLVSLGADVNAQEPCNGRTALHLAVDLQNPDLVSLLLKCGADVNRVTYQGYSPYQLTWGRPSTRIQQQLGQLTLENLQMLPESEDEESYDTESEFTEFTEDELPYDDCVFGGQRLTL
# No constants are given. Whether binding was seen depends on the method and setting. Binding seen in cells or lysates may run through a third protein. These calls come from enrichment with a bait or labelling near it, and not all partners need be listed. For some assays here: No binding means not detected with the bait. For some assays here: Tags and fused reporters may be left off the sequences shown.
# Assays:
# [1] = target: T1, FLAG-GST-PRDX3 (20 K human protein beads array) (human) (UniProt P30048); assay: proximity labelling; CF-PPiD on the 20 K human protein beads array: 19,712 FG-tagged human proteins as dual spots on 27 1536-well plates; AirID-IκBα translational mixture with biotin and ATP; signals normalised to RelA on each plate; only the target purified
# T1 sequence: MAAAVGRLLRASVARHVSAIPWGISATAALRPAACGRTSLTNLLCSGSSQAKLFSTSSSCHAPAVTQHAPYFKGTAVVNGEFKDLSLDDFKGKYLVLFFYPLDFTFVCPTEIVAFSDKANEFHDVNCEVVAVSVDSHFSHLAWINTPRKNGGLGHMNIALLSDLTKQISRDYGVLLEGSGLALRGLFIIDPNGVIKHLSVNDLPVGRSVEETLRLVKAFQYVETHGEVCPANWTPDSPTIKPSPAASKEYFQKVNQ
# [2] = target: T2, FLAG-GST-methylcrotonyl-CoA carboxylase subunit 1 (MCCC1) (human) (UniProt Q96RQ3); assay: as above
# T2 sequence: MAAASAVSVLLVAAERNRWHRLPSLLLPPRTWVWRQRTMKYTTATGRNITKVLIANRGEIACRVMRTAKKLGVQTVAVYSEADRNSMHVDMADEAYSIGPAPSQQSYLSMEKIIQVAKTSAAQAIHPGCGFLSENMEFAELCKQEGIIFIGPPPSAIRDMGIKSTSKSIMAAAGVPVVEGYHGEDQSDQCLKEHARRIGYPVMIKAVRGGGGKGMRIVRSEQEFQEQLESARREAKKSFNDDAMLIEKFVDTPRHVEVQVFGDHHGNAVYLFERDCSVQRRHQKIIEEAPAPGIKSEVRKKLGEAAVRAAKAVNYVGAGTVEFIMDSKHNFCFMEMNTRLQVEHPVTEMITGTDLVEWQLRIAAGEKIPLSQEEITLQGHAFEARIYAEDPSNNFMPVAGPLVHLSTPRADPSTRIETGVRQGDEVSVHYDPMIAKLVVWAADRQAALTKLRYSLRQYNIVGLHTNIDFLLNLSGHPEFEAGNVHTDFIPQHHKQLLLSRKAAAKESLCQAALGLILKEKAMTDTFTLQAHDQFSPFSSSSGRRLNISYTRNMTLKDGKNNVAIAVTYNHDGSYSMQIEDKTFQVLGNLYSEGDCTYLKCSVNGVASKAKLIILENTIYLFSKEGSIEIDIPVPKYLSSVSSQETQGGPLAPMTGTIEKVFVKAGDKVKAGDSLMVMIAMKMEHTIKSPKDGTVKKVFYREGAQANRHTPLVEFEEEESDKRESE
# [3] = target: FLAG-GST-TPD52L3 (20 K human protein beads array) (human) (UniProt Q96J77); assay: as above
# [4] = target: T3, FLAG-GST-pyruvate carboxylase (PC) (human) (UniProt P11498); assay: as above
# T3 sequence: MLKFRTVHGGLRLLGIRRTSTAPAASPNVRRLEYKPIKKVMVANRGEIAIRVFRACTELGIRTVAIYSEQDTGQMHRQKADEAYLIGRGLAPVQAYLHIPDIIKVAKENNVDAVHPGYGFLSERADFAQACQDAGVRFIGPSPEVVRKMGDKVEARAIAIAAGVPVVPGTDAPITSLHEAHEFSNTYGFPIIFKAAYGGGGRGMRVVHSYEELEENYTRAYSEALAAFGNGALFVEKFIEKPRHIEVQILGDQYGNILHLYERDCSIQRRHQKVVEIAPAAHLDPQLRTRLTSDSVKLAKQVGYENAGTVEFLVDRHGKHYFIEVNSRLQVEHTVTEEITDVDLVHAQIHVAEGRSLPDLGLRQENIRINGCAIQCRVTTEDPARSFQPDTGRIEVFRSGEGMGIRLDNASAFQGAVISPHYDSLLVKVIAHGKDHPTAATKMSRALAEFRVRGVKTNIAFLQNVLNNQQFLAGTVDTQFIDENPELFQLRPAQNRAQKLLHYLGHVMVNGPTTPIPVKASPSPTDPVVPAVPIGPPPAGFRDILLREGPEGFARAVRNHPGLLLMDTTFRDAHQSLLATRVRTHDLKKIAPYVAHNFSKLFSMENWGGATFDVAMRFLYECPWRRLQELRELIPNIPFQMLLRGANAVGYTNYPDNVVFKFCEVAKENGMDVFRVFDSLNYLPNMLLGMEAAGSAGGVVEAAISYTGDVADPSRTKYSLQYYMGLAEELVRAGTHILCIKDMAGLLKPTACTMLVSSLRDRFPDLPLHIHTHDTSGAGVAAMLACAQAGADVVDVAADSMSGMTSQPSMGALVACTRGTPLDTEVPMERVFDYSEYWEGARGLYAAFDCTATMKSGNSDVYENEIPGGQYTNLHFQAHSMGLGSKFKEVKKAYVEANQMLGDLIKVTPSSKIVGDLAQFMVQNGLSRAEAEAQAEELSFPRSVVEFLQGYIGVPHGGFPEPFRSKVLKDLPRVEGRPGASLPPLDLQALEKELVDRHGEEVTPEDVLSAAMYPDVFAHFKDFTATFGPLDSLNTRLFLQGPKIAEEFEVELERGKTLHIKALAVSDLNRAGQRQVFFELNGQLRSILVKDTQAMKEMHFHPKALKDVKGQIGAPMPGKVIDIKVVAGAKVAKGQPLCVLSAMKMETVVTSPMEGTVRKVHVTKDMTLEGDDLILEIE
# FLAG-GST-Mdm2 (human) = FLAG-GST-Mdm2 (human) (UniProt Q00987); assay: proximity labelling; CF-PPiD, model set: FG-proteins captured on glutathione magnetic beads on a 1536-well magnetic plate; translational mixture of AirID-fused protein with 5 mM D-biotin and 1 mM ATP in PBS, room temperature (approximately 25 °C), 1–24 h (normally 3 h); wash with PBS, 0.5 M NaCl, 1% Triton X-100; HRP-conjugated anti-biotin antibody; only the target purified
substance,measurement,setting,value
AirID N-terminally fused to IκBα (from UniProt P25963 1-317),binding,[1],binds
same,binding,[2],no binding
same,binding,[3],binds
same,binding,[4],no binding
same,binding,FLAG-GST-Mdm2 (human),no binding
